Source: the supplement of paper PMC12542422
Counter-ions that a name gives are not always drawn. ± gives the standard deviation of the averaged measurements. The list shows a part of the results. These are raw signals, not scaled to a control.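 Ribosome-assembly readouts in HeLa cells were imaged via ENP1 staining, with or without export block, or inducible tagged ribosomal protein reporters. Machine learning classified per-cell signal location versus solvent (DMSO) controls. Hits surpassed the DMSO false-positive mean by five standard deviations and were visually confirmed; three biological replicates.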

These compounds were tested on HeLa RPL29-GFP reporter (assay: fraction of reporter-positive cells with nuclear (nucleolar or nucleolar/nucleoplasmic) RPL29-GFP (MainHitrate); higher = more cells with nucleolar/nuclear readout signal (for ENP1 -LMB: less RNAPI inhibition; for +LMB ENP1 and RP reporters: stronger nuclear/nucleolar retention, i.e. ribosome biogenesis defect)). Details: concentration: 1 µM; treatment time: 6 h.

Structure (SMILES)	fraction of reporter-positive cells with nuclear
NCCc1ccc(O)c(O)c1 [Dopamine hydrochloride (Inotropin)]	0.229 ± 0.067
O=C1[C@@H]2[C@H]3CC[C@H](C3)[C@@H]2C(=O)N1C[C@@H]1CCCC[C@H]1CN1CCN(c2nsc3ccccc23)CC1 [Lurasidone HCl]	0.207 ± 0.059
Nc1nnc(-c2cccc(Cl)c2Cl)c(N)n1 [Lamotrigine]	0.251 ± 0.076
CCOc1ccc2nc3cc(N)ccc3c(N)c2c1 [Ethacridine lactate monohydrate]	0.208 ± 0.057
NC(=O)OCC(COC(N)=O)c1ccccc1 [Felbamate]	0.224 ± 0.072
CC#CCn1c(N2CCC[C@@H](N)C2)nc2c1c(=O)n(Cc1nc(C)c3ccccc3n1)c(=O)n2C [Linagliptin (BI-1356)]	0.215 ± 0.068
CCOc1cc(CC(=O)N[C@@H](CC(C)C)c2ccccc2N2CCCCC2)ccc1C(=O)O [Repaglinide]	0.211 ± 0.093
CC=CC1=C(C(=O)O)N2C(=O)[C@@H](NC(=O)[C@H](N)c3ccc(O)cc3)[C@H]2SC1 [Cefprozil hydrate (Cefzil)]	0.222 ± 0.077
Nc1ncnc2c1ncn2[C@@H]1O[C@H](COP(=O)(O)OP(=O)(O)OP(=O)(O)O)[C@@H](O)[C@H]1O [ATP (Adenosine-Triphosphate)]	0.229 ± 0.1
CCCCCCCCCCCCCCCC[N+](C)(C)CCN(Cc1ccc(OC)cc1)c1ncccn1 [Thonzonium Bromide]	0.273 ± 0.2
Cc1onc(-c2ccccc2Cl)c1C(=O)N[C@@H]1C(=O)N2[C@@H]1SC(C)(C)[C@@H]2C(=O)O [Cloxacillin sodium (Cloxacap)]	0.212 ± 0.054
CCCC(CCC)C(=O)O [Valproic acid sodium salt (Sodium valproate)]	0.2 ± 0.069
Cc1cc(C(C)(C)C)c(O)c(C)c1CC1=NCCN1 [Oxymetazoline hydrochloride]	0.243 ± 0.075
Cc1ccc(S(=O)(=O)NC(=O)NN2CC3CCCC3C2)cc1 (stereo not given) [Gliclazide (Diamicron)]	0.206 ± 0.075
CCCCC(=O)N(Cc1ccc(-c2ccccc2-c2nnn[nH]2)cc1)[C@H](C(=O)O)C(C)C [Valsartan (Diovan)]	0.229 ± 0.098
Fc1ccc([C@@H]2CCNC[C@H]2COc2ccc3c(c2)OCO3)cc1 [Paroxetine HCl]	0.194 ± 0.042
CN/C(=N\CCSCc1nc[nH]c1C)NC#N [Cimetidine (Tagamet)]	0.226 ± 0.078
CC(C)OC(=O)C(C(=O)OC(C)C)=C1SC=CS1 [Malotilate]	0.211 ± 0.057
O=C1OC(CN2CCOCC2)CN1/N=C/c1ccc([N+](=O)[O-])o1 (stereo not given) [Furaltadone HCl]	0.21 ± 0.065
Cc1cnc(C(=O)NCCc2ccc(S(=O)(=O)NC(=O)NC3CCCCC3)cc2)cn1 [Glipizide (Glucotrol)]	0.218 ± 0.056

Gathered by group: the compounds so far containing an NH in an aromatic ring.
Structure (SMILES)	fraction of reporter-positive cells with nuclear
CCCCC(=O)N(Cc1ccc(-c2ccccc2-c2nnn[nH]2)cc1)[C@H](C(=O)O)C(C)C [Valsartan (Diovan)]	0.229 ± 0.098
CN/C(=N\CCSCc1nc[nH]c1C)NC#N [Cimetidine (Tagamet)]	0.226 ± 0.078

Continuation.

Structure (SMILES)	fraction of reporter-positive cells with nuclear
CC(=O)[C@H]1CC[C@H]2[C@@H]3CC=C4C[C@@H](O)CC[C@]4(C)[C@H]3CC[C@]12C [Pregnenolone]	0.232 ± 0.091
Nc1ccn([C@@H]2CS[C@H](CO)O2)c(=O)n1 [Lamivudine (Epivir)]	0.203 ± 0.041
CC(N)C12CC3CC(CC(C3)C1)C2 (stereo not given) [Rimantadine (Flumadine)]	0.238 ± 0.058
CCC[C@@H]1C[C@@H](C(=O)N[C@@H]([C@H]2O[C@H](SC)[C@H](O)[C@@H](O)[C@H]2O)[C@@H](C)O)N(C)C1 [Lincomycin hydrochloride (Lincocin)]	0.218 ± 0.035
CCCCC[C@H](O)/C=C/[C@H]1[C@H](O)CC(=O)[C@@H]1CCCCCCC(=O)O [Alprostadil (Caverject)]	0.215 ± 0.054
Cc1cc2c(cc1S(N)(=O)=O)S(=O)(=O)CCC2 [Meticrane]	0.287 ± 0.26
O=C(O)c1cccnc1Nc1cccc(C(F)(F)F)c1 [Niflumic acid]	0.215 ± 0.043
CNCCCC12CCC(c3ccccc31)c1ccccc12 [Maprotiline hydrochloride]	0.223 ± 0.089
CCc1cccc2c3c([nH]c12)C(CC)(CC(=O)O)OCC3 (stereo not given) [Etodolac (Lodine)]	0.234 ± 0.067
CCOC(=O)c1c(CSc2ccccc2)n(C)c2cc(Br)c(O)c(CN(C)C)c12 [Arbidol HCl]	0.27 ± 0.068
CC(C)NCC(O)c1cc(O)cc(O)c1 (stereo not given) [Metaproterenol Sulfate]	0.319 ± 0.26
CCC(=O)O[C@]1(C(=O)SCF)[C@H](C)C[C@H]2[C@@H]3C[C@H](F)C4=CC(=O)C=C[C@]4(C)[C@@]3(F)[C@@H](O)C[C@@]21C [Fluticasone propionate (Flonase, Veramyst)]	0.272 ± 0.088
CNCCC(Oc1ccc(C(F)(F)F)cc1)c1ccccc1 (stereo not given) [Fluoxetine  HCl]	0.204 ± 0.05
Cc1ccc(C)c(OCCCC(C)(C)C(=O)O)c1 [Gemfibrozil (Lopid)]	0.2 ± 0.062
CCN(CC)CCOC(=O)C(c1ccccc1)c1ccccc1 [Adiphenine HCl]	0.22 ± 0.059
CCCCOc1ccc(C(=O)CCN2CCCCC2)cc1 [Dyclonine HCl]	0.225 ± 0.049
C[C@H](Cn1cnc2c(N)ncnc21)OCP(=O)(O)O [Tenofovir (Viread)]	0.203 ± 0.077
CC(=O)[C@H]1CC[C@H]2[C@@H]3C=CC4=CC(=O)CC[C@@]4(C)[C@@H]3CC[C@]12C [Dydrogesterone]	0.217 ± 0.074
COc1ccc2[nH]cc(CCNC(C)=O)c2c1 [Melatonin]	0.2 ± 0.06
C[C@H]1C[C@@H]2[C@H]([C@@H](O)C[C@@]3(C)[C@H]2CC[C@]3(O)C(=O)CO)[C@@]2(C)C=CC(=O)C=C12 [Methylprednisolone]	0.216 ± 0.012
